Measurements reported in PubChem BioAssay AID493195 (Broad Institute, 2011).
These results got no clear call from the source, so the numbers are uncertain.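 Rule for the calls: active = fitted dose curve reaching 40% activation within the tested dose range; inconclusive = no clear call, values can overlap the other calls; inactive = the rest, or activity opposite the expected rise.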

Assay: HRE-luciferase reporter activators in U2OS cells, dose response, cell-based, luminescence, U2OS HRE-luc, dry powder, set 6 (AID 493195)
Details: HIF activation; at 38 µM (top of the series)
Summary of the method: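 Technique – Steady-Glo luciferase luminescence · Test system – human U2OS osteosarcoma cells stably carrying 3×HRE-luciferase reporter · Quantity – 6,000 cells per well · Doses – 8 concentrations, 3-fold steps, 7.5 mM stock · Timing – 24 h compound exposure at 37 °C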

## O=C(NCCCN1CCOCC1)c1cc(-c2ccccc2)on1
  activation: inconclusive: 27.1%
